Paper PMC9988210
No constants are given. Whether binding was seen depends on the method and setting. Binding seen in cells or lysates may run through a third protein. A yes stands for co-enrichment or nearness to the bait. Other partners may have been found. Where a sequence is shown, tags or fusion partners need not be part of it. Blank lines part the entries; values can stand above or below the molecule they belong to.

Sequences of proteins named here, by UniProt entry; tags and fusion partners are left off. Residues count along the entry.
UniProt Q8WW22: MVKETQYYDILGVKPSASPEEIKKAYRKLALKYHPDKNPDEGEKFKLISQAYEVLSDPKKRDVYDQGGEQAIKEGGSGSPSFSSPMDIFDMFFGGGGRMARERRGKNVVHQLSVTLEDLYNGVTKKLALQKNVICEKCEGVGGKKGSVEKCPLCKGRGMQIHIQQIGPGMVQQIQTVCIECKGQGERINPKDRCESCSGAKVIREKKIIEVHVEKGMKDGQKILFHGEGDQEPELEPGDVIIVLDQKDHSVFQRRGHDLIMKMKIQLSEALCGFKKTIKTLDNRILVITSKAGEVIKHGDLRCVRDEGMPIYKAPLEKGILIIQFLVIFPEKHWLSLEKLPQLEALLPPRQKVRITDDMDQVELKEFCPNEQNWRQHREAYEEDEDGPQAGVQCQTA
UniProt Q3ZCQ8, residues 45-353: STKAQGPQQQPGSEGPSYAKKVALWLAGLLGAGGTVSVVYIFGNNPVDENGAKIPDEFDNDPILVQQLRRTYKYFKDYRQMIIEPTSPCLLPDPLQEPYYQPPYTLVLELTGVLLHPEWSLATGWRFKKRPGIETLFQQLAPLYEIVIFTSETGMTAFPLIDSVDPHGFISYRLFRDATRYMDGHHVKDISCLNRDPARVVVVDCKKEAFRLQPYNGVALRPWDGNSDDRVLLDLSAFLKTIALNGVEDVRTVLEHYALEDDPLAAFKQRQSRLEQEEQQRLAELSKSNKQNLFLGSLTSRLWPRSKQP
UniProt O60884: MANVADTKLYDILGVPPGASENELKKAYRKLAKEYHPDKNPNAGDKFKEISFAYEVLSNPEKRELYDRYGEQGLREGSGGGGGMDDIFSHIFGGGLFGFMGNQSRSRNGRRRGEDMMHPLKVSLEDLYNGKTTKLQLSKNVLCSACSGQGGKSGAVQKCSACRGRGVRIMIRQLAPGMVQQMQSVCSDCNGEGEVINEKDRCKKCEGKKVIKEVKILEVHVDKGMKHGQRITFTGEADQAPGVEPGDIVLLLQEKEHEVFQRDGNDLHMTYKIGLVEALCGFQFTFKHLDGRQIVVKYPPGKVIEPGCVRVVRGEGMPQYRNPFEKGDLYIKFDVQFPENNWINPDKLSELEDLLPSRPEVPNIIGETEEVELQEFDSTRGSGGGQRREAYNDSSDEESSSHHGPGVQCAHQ
UniProt P11142: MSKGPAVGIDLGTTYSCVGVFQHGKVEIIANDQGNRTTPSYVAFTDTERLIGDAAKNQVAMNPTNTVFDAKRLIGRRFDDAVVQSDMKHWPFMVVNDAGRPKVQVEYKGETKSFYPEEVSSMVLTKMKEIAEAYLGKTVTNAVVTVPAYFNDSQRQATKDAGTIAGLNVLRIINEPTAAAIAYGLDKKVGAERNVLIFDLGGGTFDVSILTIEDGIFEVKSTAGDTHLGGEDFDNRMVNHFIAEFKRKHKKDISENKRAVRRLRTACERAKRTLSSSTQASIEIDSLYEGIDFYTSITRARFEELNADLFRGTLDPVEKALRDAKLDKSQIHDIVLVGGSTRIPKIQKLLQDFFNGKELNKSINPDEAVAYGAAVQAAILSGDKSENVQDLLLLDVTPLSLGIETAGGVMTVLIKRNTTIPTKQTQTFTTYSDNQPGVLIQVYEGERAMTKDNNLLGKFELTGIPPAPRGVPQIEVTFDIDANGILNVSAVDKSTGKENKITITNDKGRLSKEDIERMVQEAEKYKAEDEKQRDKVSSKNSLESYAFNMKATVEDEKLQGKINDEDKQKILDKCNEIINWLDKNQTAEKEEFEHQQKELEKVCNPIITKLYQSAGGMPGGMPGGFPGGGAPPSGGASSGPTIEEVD
UniProt A6NIH7: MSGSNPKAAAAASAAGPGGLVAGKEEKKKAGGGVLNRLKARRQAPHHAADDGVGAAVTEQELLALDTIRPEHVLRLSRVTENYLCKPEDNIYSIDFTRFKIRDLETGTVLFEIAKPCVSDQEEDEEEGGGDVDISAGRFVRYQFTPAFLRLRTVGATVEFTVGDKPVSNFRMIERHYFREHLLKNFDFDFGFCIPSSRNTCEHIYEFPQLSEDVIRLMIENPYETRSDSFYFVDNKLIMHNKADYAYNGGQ
UniProt P38646, residues 47-679: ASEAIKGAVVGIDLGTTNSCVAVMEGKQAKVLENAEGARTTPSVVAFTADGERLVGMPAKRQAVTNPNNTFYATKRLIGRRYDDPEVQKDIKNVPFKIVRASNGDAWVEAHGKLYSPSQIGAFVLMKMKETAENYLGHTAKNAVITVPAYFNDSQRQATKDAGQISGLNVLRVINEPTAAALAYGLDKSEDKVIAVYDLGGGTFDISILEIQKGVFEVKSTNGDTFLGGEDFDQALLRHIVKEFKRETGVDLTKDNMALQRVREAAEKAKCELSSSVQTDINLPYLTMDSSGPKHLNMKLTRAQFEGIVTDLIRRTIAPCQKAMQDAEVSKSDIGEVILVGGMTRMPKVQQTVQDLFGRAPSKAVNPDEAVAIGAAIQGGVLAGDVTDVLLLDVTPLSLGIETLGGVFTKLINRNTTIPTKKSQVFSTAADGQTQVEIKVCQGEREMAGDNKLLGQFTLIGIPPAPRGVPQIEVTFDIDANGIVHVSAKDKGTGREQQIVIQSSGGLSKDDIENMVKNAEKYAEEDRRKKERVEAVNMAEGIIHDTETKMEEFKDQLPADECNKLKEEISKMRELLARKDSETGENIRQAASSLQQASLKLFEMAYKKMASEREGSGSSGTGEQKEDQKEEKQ
UniProt P08238: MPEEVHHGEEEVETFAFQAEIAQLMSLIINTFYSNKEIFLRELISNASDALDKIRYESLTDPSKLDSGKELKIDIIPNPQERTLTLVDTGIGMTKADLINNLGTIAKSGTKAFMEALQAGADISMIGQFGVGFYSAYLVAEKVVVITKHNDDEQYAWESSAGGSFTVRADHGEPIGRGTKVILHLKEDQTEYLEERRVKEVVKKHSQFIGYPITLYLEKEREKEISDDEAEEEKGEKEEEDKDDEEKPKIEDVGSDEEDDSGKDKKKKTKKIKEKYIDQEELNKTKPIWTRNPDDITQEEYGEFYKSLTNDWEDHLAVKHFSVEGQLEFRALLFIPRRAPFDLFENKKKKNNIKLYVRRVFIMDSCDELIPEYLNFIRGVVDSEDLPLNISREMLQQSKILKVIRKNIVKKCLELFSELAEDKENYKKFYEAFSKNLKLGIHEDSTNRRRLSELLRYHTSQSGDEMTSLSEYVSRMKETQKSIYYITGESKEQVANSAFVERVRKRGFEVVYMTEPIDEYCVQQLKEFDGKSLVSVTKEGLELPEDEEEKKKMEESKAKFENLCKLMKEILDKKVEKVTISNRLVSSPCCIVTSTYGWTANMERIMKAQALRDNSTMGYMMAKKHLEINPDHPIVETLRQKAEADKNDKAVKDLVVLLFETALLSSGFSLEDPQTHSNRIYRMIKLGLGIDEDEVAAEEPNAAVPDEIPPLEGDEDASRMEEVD
UniProt Q8TEM1, residues 27-1887: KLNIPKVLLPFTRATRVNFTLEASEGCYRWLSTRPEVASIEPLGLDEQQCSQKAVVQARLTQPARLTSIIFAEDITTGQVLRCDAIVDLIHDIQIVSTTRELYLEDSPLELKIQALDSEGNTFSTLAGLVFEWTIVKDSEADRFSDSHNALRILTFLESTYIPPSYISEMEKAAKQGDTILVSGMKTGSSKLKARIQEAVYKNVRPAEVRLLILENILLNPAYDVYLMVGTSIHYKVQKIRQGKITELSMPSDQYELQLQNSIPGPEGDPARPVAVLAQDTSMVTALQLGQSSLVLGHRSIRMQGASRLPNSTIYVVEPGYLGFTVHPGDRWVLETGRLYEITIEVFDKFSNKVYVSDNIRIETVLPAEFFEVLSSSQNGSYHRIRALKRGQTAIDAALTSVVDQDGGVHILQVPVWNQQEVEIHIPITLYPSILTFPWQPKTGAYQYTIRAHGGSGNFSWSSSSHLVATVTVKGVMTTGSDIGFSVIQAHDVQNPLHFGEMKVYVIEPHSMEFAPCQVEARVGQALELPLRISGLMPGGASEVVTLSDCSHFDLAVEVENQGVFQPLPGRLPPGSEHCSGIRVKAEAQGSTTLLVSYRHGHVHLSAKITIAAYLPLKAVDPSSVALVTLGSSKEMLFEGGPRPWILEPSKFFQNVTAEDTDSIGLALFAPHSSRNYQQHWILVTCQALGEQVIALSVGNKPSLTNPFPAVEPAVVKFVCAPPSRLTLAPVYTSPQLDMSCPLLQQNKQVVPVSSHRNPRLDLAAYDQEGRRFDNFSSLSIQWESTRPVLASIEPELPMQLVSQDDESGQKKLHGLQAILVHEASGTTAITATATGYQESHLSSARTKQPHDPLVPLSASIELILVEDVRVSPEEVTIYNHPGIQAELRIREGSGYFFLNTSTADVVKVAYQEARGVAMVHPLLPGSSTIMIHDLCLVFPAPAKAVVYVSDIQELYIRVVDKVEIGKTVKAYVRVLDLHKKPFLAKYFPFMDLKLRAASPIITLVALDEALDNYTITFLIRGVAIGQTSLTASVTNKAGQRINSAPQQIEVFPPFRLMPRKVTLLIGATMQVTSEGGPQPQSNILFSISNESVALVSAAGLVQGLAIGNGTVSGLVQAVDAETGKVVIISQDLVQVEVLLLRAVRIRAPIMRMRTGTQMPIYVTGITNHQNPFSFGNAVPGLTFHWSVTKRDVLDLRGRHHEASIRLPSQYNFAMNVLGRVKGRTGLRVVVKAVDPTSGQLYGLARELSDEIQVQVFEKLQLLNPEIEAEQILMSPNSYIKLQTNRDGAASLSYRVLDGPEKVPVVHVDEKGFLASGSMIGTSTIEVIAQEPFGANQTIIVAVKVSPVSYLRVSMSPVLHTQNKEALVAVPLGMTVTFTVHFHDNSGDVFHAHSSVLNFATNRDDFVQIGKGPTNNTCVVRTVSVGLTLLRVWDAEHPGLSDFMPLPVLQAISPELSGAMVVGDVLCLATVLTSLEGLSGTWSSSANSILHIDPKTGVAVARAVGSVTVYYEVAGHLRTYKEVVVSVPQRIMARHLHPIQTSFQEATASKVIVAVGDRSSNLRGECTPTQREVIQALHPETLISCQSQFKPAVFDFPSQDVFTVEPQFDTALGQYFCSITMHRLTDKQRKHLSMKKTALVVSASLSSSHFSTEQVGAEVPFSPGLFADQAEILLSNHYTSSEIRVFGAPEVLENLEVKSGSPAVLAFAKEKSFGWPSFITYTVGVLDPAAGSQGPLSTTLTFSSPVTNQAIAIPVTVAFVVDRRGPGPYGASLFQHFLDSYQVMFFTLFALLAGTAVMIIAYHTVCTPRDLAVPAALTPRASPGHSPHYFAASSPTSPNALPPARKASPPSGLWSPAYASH

Experiments:
[1] = target: T1, C-terminal STREP-tagged PSKH2 (human) (UniProt Q96QS6); experiment: affinity purification with mass spectrometry; N- or C-terminal STREP-tagged PSKH2 isolated from HEK-293T cells in triplicate on Strep-TACTIN beads with DDM, eluted with 3C protease, LC-MS/MS, label-free quantification against an EGFP-transfected control
T1 sequence: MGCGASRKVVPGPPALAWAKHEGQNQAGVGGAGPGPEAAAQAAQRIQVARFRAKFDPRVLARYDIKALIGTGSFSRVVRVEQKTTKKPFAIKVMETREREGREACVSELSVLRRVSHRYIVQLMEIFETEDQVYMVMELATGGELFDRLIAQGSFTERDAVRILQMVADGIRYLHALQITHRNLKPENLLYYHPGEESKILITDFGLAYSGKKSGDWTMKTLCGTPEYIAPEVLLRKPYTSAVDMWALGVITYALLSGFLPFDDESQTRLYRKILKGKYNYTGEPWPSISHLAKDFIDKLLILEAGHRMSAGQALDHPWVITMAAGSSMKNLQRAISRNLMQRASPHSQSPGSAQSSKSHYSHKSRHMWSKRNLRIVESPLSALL

[2] = target: T2, N-terminal STREP-tagged PSKH2 (human) (UniProt Q96QS6); experiment: as above
T2 sequence: T1 sequence

binding [1]: binds
binding [2]: binds
Molecule: DNAJA4 (from UniProt Q8WW22 1-397)

binding [1]: binds
binding [2]: binds
Molecule: TIMM50 (from UniProt Q3ZCQ8 45-353)

binding [1]: binds
binding [2]: binds
Molecule: DNAJA2 (from UniProt O60884 1-412)

binding [1]: binds
binding [2]: binds
Molecule: HSPA8 (from UniProt P11142 1-646)

binding [1]: binds
binding [2]: binds
B1: Cdc37 (protein, UniProt Q16543 1-378)
chain: MVDYSVWDHIEVSDDEDETHPNIDTASLFRWRHQARVERMEQFQKEKEELDRGCRECKRKVAECQRKLKELEVAEGGKAELERLQAEAQQLRKEERSWEQKLEEMRKKEKSMPWNVDTLSKDGFSKSMVNTKPEKTEEDSEEVREQKHKTFVEKYEKQIKHFGMLRRWDDSQKYLSDNVHLVCEETANYLVIWCIDLEVEEKCALMEQVAHQTIVMQFILELAKSLKVDPRACFRQFFTKIKTADRQYMEGFNDELEAFKERVRGRAKLRIEKAMKEYEEEERKKRLGPGGLDPVEVYESLPEELQKCFDVKDVQMLQDAISKMDPTDAKYHMQRCIDSGLWVPNSKASEAKEGEEAGPGDPLLEAVPKTGDEKDVSV

binding [1]: binds
binding [2]: binds
B4: NUP160 (protein, UniProt Q12769 1-1436)
chain: MLHLSAAPPAPPPEVTATARPCLCSVGRRGDGGKMAAAGALERSFVELSGAERERPRHFREFTVCSIGTANAVAGAVKYSESAGGFYYVESGKLFSVTRNRFIHWKTSGDTLELMEESLDINLLNNAIRLKFQNCSVLPGGVYVSETQNRVIILMLTNQTVHRLLLPHPSRMYRSELVVDSQMQSIFTDIGKVDFTDPCNYQLIPAVPGISPNSTASTAWLSSDGEALFALPCASGGIFVLKLPPYDIPGMVSVVELKQSSVMQRLLTGWMPTAIRGDQSPSDRPLSLAVHCVEHDAFIFALCQDHKLRMWSYKEQMCLMVADMLEYVPVKKDLRLTAGTGHKLRLAYSPTMGLYLGIYMHAPKRGQFCIFQLVSTESNRYSLDHISSLFTSQETLIDFALTSTDIWALWHDAENQTVVKYINFEHNVAGQWNPVFMQPLPEEEIVIRDDQDPREMYLQSLFTPGQFTNEALCKALQIFCRGTERNLDLSWSELKKEVTLAVENELQGSVTEYEFSQEEFRNLQQEFWCKFYACCLQYQEALSHPLALHLNPHTNMVCLLKKGYLSFLIPSSLVDHLYLLPYENLLTEDETTISDDVDIARDVICLIKCLRLIEESVTVDMSVIMEMSCYNLQSPEKAAEQILEDMITIDVENVMEDICSKLQEIRNPIHAIGLLIREMDYETEVEMEKGFNPAQPLNIRMNLTQLYGSNTAGYIVCRGVHKIASTRFLICRDLLILQQLLMRLGDAVIWGTGQLFQAQQDLLHRTAPLLLSYYLIKWGSECLATDVPLDTLESNLQHLSVLELTDSGALMANRFVSSPQTIVELFFQEVARKHIISHLFSQPKAPLSQTGLNWPEMITAITSYLLQLLWPSNPGCLFLECLMGNCQYVQLQDYIQLLHPWCQVNVGSCRFMLGRCYLVTGEGQKALECFCQAASEVGKEEFLDRLIRSEDGEIVSTPRLQYYDKVLRLLDVIGLPELVIQLATSAITEAGDDWKSQATLRTCIFKHHLDLGHNSQAYEALTQIPDSSRQLDCLRQLVVVLCERSQLQDLVEFPYVNLHNEVVGIIESRARAVDLMTHNYYELLYAFHIYRHNYRKAGTVMFEYGMRLGREVRTLRGLEKQGNCYLAALNCLRLIRPEYAWIVQPVSGAVYDRPGASPKRNHDGECTAAPTNRQIEILELEDLEKECSLARIRLTLAQHDPSAVAVAGSSSAEEMVTLLVQAGLFDTAISLCQTFKLPLTPVFEGLAFKCIKLQFGGEAAQAEAWAWLAANQLSSVITTKESSATDEAWRLLSTYLERYKVQNNLYHHCVINKLLSHGVPLPNWLINSYKKVDAAELLRLYLNYDLLEEAVDLVSEYVDAVLGKGHQYFGIEFPLSATAPMVWLPYSSIDQLLQALGENSANSHNIALSQKILDKLEDYQQKVDKATRDLLYRRTL

binding [1]: binds
B5: Geranylgeranyl transferase type-2 subunit beta (RABGGTB) (protein, UniProt P53611 1-331)
chain: MGTPQKDVIIKSDAPDTLLLEKHADYIASYGSKKDDYEYCMSEYLRMSGIYWGLTVMDLMGQLHRMNREEILAFIKSCQHECGGISASIGHDPHLLYTLSAVQILTLYDSINVIDVNKVVEYVKGLQKEDGSFAGDIWGEIDTRFSFCAVATLALLGKLDAINVEKAIEFVLSCMNFDGGFGCRPGSESHAGQIYCCTGFLAITSQLHQVNSDLLGWWLCERQLPSGGLNGRPEKLPDVCYSWWVLASLKIIGRLHWIDREKLRNFILACQDEETGGFADRPGDMVDPFHTLFGIAGLSLLGEEQIKPVNPVFCMPEEVLQRVNVQPELVS

binding [1]: binds
binding [2]: binds
B7: TIMM23 (protein, UniProt O14925 1-209)
chain: MEGGGGSGNKTTGGLAGFFGAGGAGYSHADLAGVPLTGMNPLSPYLNVDPRYLVQDTDEFILPTGANKTRGRFELAFFTIGGCCMTGAAFGAMNGLRLGLKETQNMAWSKPRNVQILNMVTRQGALWANTLGSLALLYSAFGVIIEKTRGAEDDLNTVAAGTMTGMLYKCTGGLRGIARGGLTGLTLTSLYALYNNWEHMKGSLLQQSL

Second part, the molecule before the results:

Molecule: CDC25C (human (endogenous in HEK-293T))
binding [1]: binds
binding [2]: binds

Molecule: UNC119B (from UniProt A6NIH7 1-251)
binding [1]: binds

Molecule: HSPA9 (from UniProt P38646 47-679)
binding [1]: binds
binding [2]: binds

Molecule: HSP90β (from UniProt P08238 1-724)
binding [1]: binds
binding [2]: binds

Molecule: DNAJA1 (from UniProt P31689 1-397)
binding [1]: binds
binding [2]: binds

Molecule: NUP210 (from UniProt Q8TEM1 27-1887)
binding [1]: binds
binding [2]: binds

B2: RANBP3 (protein, UniProt Q9H6Z4 1-567)
chain: MADLANEEKPAIAPPVFVFQKDKGQKSPAEQKNLSDSGEEPRGEAEAPHHGTGHPESAGEHALEPPAPAGASASTPPPPAPEAQLPPFPRELAGRSAGGSSPEGGEDSDREDGNYCPPVKRERTSSLTQFPPSQSEERSSGFRLKPPTLIHGQAPSAGLPSQKPKEQQRSVLRPAVLQAPQPKALSQTVPSSGTNGVSLPADCTGAVPAASPDTAAWRSPSEAADEVCALEEKEPQKNESSNASEEEACEKKDPATQQAFVFGQNLRDRVKLINESVDEADMENAGHPSADTPTATNYFLQYISSSLENSTNSADASSNKFVFGQNMSERVLSPPKLNEVSSDANRENAAAESGSESSSQEATPEKESLAESAAAYTKATARKCLLEKVEVITGEEAESNVLQMQCKLFVFDKTSQSWVERGRGLLRLNDMASTDDGTLQSRLVMRTQGSLRLILNTKLWAQMQIDKASEKSIRITAMDTEDQGVKVFLISASSKDTGQLYAALHHRILALRSRVEQEQEAKMPAPEPGAAPSNEEDDSDDDDVLAPSGATAAGAGDEGDGQTTGST
binding [1]: binds
binding [2]: binds

B3: SLC25A6 (protein, UniProt P12236 1-298)
chain: MTEQAISFAKDFLAGGIAAAISKTAVAPIERVKLLLQVQHASKQIAADKQYKGIVDCIVRIPKEQGVLSFWRGNLANVIRYFPTQALNFAFKDKYKQIFLGGVDKHTQFWRYFAGNLASGGAAGATSLCFVYPLDFARTRLAADVGKSGTEREFRGLGDCLVKITKSDGIRGLYQGFSVSVQGIIIYRAAYFGVYDTAKGMLPDPKNTHIVVSWMIAQTVTAVAGVVSYPFDTVRRRMMMQSGRKGADIMYTGTVDCWRKIFRDEGGKAFFKGAWSNVLRGMGGAFVLVLYDELKKVI
binding [1]: binds
binding [2]: binds

B6: TOMM40 (protein, UniProt O96008 1-361)
chain: MGNVLAASSPPAGPPPPPAPALVGLPPPPPSPPGFTLPPLGGSLGAGTSTSRSSERTPGAATASASGAAEDGACGCLPNPGTFEECHRKCKELFPIQMEGVKLTVNKGLSNHFQVNHTVALSTIGESNYHFGVTYVGTKQLSPTEAFPVLVGDMDNSGSLNAQVIHQLGPGLRSKMAIQTQQSKFVNWQVDGEYRGSDFTAAVTLGNPDVLVGSGILVAHYLQSITPCLALGGELVYHRRPGEEGTVMSLAGKYTLNNWLATVTLGQAGMHATYYHKASDQLQVGVEFEASTRMQDTSVSFGYQLDLPKANLLFKGSVDSNWIVGATLEKKLPPLPLTLALGAFLNHRKNKFQCGFGLTIG
binding [1]: binds
binding [2]: binds
